For part of these data: A weaker result is weaker than the reference pair of the same experiment. For part of these data: For at least one entry, the source does not settle the construct or the ends of the probe. For part of these data: A negative result means that nothing was seen under these conditions.
Columns and labels:
c-jun = test: EMSA; settings: protein translated in vitro; protein details: Promega TNT; label: 3'-end label (Klenow)
NOR1 [1] = target: NOR1 (UniProt P51179); test: activity in cells; settings: single-copy luciferase reporter, L cells, protein in cells, protein details: RSV-LTR expression plasmid, only the site is given
Nurr1 [2] = target: Nurr1 (UniProt Q06219); test: activity in cells; settings: single-copy luciferase reporter, L cells, protein in cells, protein details: RSV-LTR expression plasmid, only the site is given
Nur77 = Nur77 (UniProt P12813); test: activity in cells; settings: luciferase reporter, protein in cells, protein details: expression plasmid (pCMX or RSV-LTR), only the site is given
NOR1 [3] = target: NOR1 (UniProt P51179); test: binding assay; settings: greater affinity than POMC Nur-RE; data not shown, method not stated
Nurr1 [4] = target: Nurr1 (UniProt Q06219); test: binding assay; settings: greater affinity than POMC Nur-RE; data not shown, method not stated
[5] = stronger than NBRE, synergy with other Nur members

Sequences of proteins named here, by UniProt entry; tags and fusion partners are left off. A change or cut given only in a name is not applied to a line headed by its entry.
UniProt P51179: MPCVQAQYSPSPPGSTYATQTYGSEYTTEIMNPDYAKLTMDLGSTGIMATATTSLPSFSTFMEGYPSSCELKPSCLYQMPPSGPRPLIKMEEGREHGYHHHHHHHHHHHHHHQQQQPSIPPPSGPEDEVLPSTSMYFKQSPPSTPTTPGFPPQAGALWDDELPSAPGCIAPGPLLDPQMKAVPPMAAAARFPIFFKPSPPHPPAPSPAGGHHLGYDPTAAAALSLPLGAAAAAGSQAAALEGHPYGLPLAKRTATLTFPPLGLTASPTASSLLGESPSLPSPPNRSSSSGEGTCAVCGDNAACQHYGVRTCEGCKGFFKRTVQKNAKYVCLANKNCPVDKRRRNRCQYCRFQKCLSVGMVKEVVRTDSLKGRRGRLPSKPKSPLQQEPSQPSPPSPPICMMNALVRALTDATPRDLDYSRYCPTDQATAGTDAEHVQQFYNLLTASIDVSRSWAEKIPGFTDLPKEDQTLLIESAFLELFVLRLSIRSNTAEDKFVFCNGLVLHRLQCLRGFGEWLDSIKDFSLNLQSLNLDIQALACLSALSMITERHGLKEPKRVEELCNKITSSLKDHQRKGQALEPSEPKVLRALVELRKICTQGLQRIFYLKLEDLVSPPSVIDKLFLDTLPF
UniProt Q06219, whole entry: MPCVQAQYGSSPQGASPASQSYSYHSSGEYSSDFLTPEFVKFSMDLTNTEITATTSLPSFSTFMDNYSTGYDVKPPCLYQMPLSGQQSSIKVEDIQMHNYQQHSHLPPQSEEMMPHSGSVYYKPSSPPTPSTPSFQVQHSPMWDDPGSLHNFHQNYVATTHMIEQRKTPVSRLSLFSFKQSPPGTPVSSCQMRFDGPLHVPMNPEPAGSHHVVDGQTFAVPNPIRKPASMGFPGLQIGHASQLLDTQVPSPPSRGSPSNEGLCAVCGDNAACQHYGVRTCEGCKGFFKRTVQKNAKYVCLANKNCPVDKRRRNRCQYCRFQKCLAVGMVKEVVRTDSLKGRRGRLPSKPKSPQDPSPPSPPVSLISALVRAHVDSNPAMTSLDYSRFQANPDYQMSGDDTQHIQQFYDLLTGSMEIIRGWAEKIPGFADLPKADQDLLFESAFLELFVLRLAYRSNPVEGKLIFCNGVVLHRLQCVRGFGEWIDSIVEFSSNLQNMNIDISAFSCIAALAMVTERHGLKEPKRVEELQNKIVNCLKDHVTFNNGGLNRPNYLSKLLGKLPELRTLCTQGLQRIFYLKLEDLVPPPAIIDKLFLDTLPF
UniProt P12813, whole entry: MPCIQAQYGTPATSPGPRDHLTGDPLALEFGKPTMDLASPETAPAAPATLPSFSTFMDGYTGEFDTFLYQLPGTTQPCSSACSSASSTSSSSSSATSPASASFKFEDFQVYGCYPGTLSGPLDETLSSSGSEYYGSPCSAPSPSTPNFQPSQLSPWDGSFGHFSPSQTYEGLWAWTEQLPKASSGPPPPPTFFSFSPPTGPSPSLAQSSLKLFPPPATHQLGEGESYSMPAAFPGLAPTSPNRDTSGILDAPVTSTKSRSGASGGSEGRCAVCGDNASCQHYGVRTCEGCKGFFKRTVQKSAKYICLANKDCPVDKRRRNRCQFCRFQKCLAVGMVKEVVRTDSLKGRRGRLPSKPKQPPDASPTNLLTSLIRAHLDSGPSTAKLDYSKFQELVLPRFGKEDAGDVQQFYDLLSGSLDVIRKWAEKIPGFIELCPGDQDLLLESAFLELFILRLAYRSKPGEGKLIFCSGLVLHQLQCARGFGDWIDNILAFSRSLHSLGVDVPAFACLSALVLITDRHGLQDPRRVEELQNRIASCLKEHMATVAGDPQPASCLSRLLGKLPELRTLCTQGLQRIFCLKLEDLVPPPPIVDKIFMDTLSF

Sequence: GATCCTAGTGATATTTACCTCCAAATGCCAGGA (double strand) [NurRE (POMC)]
- binding result (c-jun): no binding
- activity on this sequence (NOR1 [1]; [5]): active
- activity on this sequence (Nurr1 [2]; [5]): active
- activity on this sequence (Nur77; AtT-20 and L cells, trimer at least 40 times more responsive than NBRE): active

Sequence: GATCCTCGTGCGAAAAGGTCAAGCGCTA (double strand) [NBRE]
- activity on this sequence (NOR1 [1]; weaker activation than Nur-RE): less active
- activity on this sequence (Nurr1 [2]; weaker activation than Nur-RE): less active
- activity on this sequence (Nur77; at least 40-fold less responsive than Nur-RE trimer in AtT-20): less active

Sequence: TGACCTTTATTCTCAAAGGTCA (double strand) [perfect palindromic Nur-RE]
- binding result (NOR1 [3]): binds
- binding result (Nurr1 [4]): binds
